Laboratory results published in the supplement of paper PMC4683952.
The other results are listed elsewhere or left out. Rule as the data show it: active = 2 or more and inactive = the rest. This data set is noisy: repeats of one test often differ as much as different tests do.

Each compound was assayed on Lgr5 (MarsCy1-Lgr5-EGFP, U2OS) (assay: cell-surface Lgr5 expression (SCi1 fluorescence, background-subtracted) relative to WT DMSO (fold of DMSO control); higher = more Lgr5 at the plasma membrane). Details: U2OS MarsCy1-Lgr5-EGFP stable; treatment time: overnight; library: ActiProbe-5K (TimTec); 25 µM.

Structure (SMILES)	cell-surface Lgr5 expression
N#Cc1sc(N)c(C#N)c1N	inactive: 1.49
CNC(=S)N1CCCCC1	inactive: 1.45
CCCCC1NC(C(=O)O)CS1 (stereo not drawn)	inactive: 1.22
CC1CC(NC(=O)NCCCCCCNC(=O)NC2CC(C)CC(C)(C)C2)CC(C)(C)C1 (stereo not drawn)	inactive: 1.18
COc1ccc(N(C)S(=O)(=O)C2CCS(=O)(=O)C2)cc1 (stereo not drawn)	inactive: 1.33
Cc1sc2ccccc2[n+]1CCCS(=O)(=O)[O-]	inactive: 1.27
N#Cc1c(SCC(=O)c2ccc(Cl)s2)sc2c(O)cc(=O)[nH]c12	inactive: 1.04
O=S(=O)(c1ccccc1)N1CCc2ccccc21	inactive: 1.2
Cc1cc[n+](Cc2ccccn2)c(N)c1.[Br-]	inactive: 1.54
Clc1ccc2c(SCc3ccon3)ccnc2c1	inactive: 0.983
O=C1NC(=S)N2C(=O)CCC12 (stereo not drawn)	inactive: 1.3
Clc1nc2ccccc2nc1-c1ccccc1	inactive: 1.32
CCCOC(=O)C1=C(C)NC2=C(C(=O)CC(C)(C)C2)C1c1ccc(C)o1 (stereo not drawn)	inactive: 1.09
Cc1[nH]c(=O)n(C(C)(C)C)c(=O)c1C	inactive: 1.57
CCOC(=O)N1CCCC1C(=O)O (stereo not drawn)	inactive: 0.975
O=C(N/N=C\c1ccco1)c1cnccn1	inactive: 0.943
CC1=Nc2ccccc2NC(C)(C)C1	inactive: 1.17
c1ccc(CSc2nnc(C34CC5CC(CC(C5)C3)C4)o2)nc1	inactive: 1.28
N#Cc1c(SCC(=O)Nc2nccs2)sc2c(O)cc(=O)[nH]c12	inactive: 1.38
OC[C@@H]1Cc2ccccc2CN1	inactive: 1.24
c1cc(CNc2nc(-c3nonc3NC3CC3)no2)ccn1	inactive: 1.07
C/N=C1\S/C(=C/c2ccc(C)o2)C(=O)N1C	inactive: 1.13
O=C1C2CC=C(Cl)CC2C(=O)N1CCN1CCCCC1 (stereo not drawn)	inactive: 1.1

Structure (SMILES)	cell-surface Lgr5 expression
O=[N+]([O-])c1cc(/C=N\n2cnnc2)c2c(c1)COCO2	inactive: 1.02
c1ccc(-n2nnnc2-n2cnc3ccccc32)cc1	inactive: 1.05
FC(F)(F)c1nnc2c3ccccc3c(-n3ccnc3)nn12	inactive: 1.27
c1ccc(-c2cnc(-c3cccc4ccccc34)o2)cc1	inactive: 1.07
CN(C)c1ccc(C(c2ccc(N(C)C)cc2)c2ccc(N(C)C)cc2)cc1	inactive: 0.119
CN(C)S(=O)(=O)Nc1cccc([N+](=O)[O-])c1	inactive: 1.08
C=CCC1(CC=C)CNCCN1.Cl.Cl	inactive: 1.5
O=C1NC(=S)S/C1=C/N1CCOCC1	inactive: 0.81
Cc1nc(-c2nonc2N)no1	inactive: 1.07
CN(C)CCCN1C(=O)C(O)=C(C(=O)c2cccs2)C1c1ccco1 (stereo not drawn)	inactive: 1.17
CC1=CS(=O)(=O)C(C)=CC1=O	inactive: 0.716
c1ccc(/N=c2\scc(-c3ccccc3)n2-c2ccccc2)cc1	inactive: 1.6
O=C(c1nsc(Cl)c1Cl)N1CCCCC1	inactive: 1.55
CCCCCCC/C=C(\Cl)c1c(C)[nH]c(C(=O)OCC)c1C	inactive: 0.802
O=[N+]([O-])c1ccc2nccnc2c1	inactive: 1.52
O=S(=O)(CCOc1ccccc1)c1nc2ccccc2[nH]1	inactive: 1.65
O=c1c2n[nH]c3nonc3nc-2c2ccccc12	inactive: 0.968
OCCNCc1ccco1	inactive: 1.23
Cn1c(-c2ccccc2Br)n[nH]c1=S	inactive: 1.05
C(=C/c1ccc2c(c1)OCO2)/C=N\c1ccc(N2CCOCC2)cc1	inactive: 0.976
O=C([O-])COC1CCCCC1c1ccco1 (stereo not drawn)	inactive: 1.3
N#Cc1cc2c([nH]c1=S)CCCC2	inactive: 1.03
CCC(C)C(=O)Nc1nnc(CC(C)C)s1 (stereo not drawn)	inactive: 1.21

Structure (SMILES)	cell-surface Lgr5 expression
CC(=O)OCC1=C(C(=O)O)N2C(=O)C(NC(=O)C(C)n3cc([N+](=O)[O-])cn3)C2SC1 (stereo not drawn)	inactive: 1.23
COc1cc(OC)c(Br)c(OC)c1	inactive: 1.07
Cc1ccc(/C=C2\SC(N3CCC(C)CC3)=NC2=O)o1	inactive: 1.31
CN(C)c1ncnc2[nH]cnc12	inactive: 1.07
Cc1ccc(C2C3=C(CC(C)(C)CC3=O)OC3=C2C(=O)CC(C)(C)C3)s1	inactive: 1.45
c1ccc(CNc2nnns2)cc1	inactive: 1.17
NNC(=O)C(=O)Nc1nccs1	inactive: 1.07
Sc1nnc(-c2ccco2)n1/N=C/c1ccccn1	inactive: 1.01
Cc1noc(C)c1NC(=O)c1cc(C)n(C(F)F)n1	inactive: 1.07
O=c1[nH]c(=S)[nH]c2nc[nH]c12	inactive: 0.982
C1COc2cc(NC(CC3C(N=C(S3)/N=C(/N)N)=O)=O)ccc2O1 (stereo not drawn)	inactive: 1.2
O=S(=O)(NCC1CCCO1)c1ccc(Cl)c2ccccc12 (stereo not drawn)	inactive: 1.3
Fc1ccc2c(c1)C1OCCC1C(c1ccccc1)N2 (stereo not drawn)	inactive: 0.969
CCc1[nH]nc2c1C(c1ccc(Br)s1)C(C#N)=C(N)O2 (stereo not drawn)	inactive: 1.78
c1ccc(-c2nc(-c3cccnc3)no2)cc1	inactive: 0.986
Cn1nc(C(F)(F)F)cc1C(=O)O	inactive: 1
O=S(=O)(Nc1cc(Cl)cc(Cl)c1)c1ccc(Cl)cc1	inactive: 1.32
COc1ccc2nc(C#N)sc2c1	inactive: 0.82
S=C(NC1CCCCC1)N(C1CCCCC1)C1CCCCC1	inactive: 1.39
CCN(CC)c1nc(N)nc(-c2noc(C)n2)n1	inactive: 1.05
N#CC1=C2CCCCC2C(c2ccco2)C(C#N)(C#N)C1=O (stereo not drawn)	inactive: 1.45
CC1CCCN(CC(O)CN)C1 (stereo not drawn)	inactive: 1.27
O=C(NCCN1CCOCC1)c1nc[nH]n1	inactive: 1.04

Retrieved one by one from the list above, three records:
Structure (SMILES)	cell-surface Lgr5 expression
N#CC1=C2CCCCC2C(c2ccco2)C(C#N)(C#N)C1=O (stereo not drawn)	inactive: 1.45
Cc1noc(C)c1NC(=O)c1cc(C)n(C(F)F)n1	inactive: 1.07
Cn1nc(C(F)(F)F)cc1C(=O)O	inactive: 1

Remaining list, next part.

Structure (SMILES)	cell-surface Lgr5 expression
Cc1sc2ncnc(NC(C(=O)O)C(C)C)c2c1C (stereo not drawn)	inactive: 1.05
Nc1ncn(CC(O)CO)c2nc(N3CCOCC3)nc1-2 (stereo not drawn)	inactive: 1.22
C=CCN1C(=O)/C(=C2\SC(N3CCCCC3)=NC2=O)c2cc(Br)ccc21	inactive: 1.91
C/C(=N/NC(=O)CCCCC(=O)N/N=C(\C)c1ccc(C)o1)c1ccc(C)o1	inactive: 0.851
O=C(O)c1ccn(Cn2cnc([N+](=O)[O-])n2)n1	inactive: 1.11
NCCOc1ccc2c(c1)OCO2	inactive: 1.34
C(=N/C(/N=C/c1ccccc1)c1ccccc1)/c1ccccc1 (stereo not drawn)	inactive: 1.45
Clc1ccc(/N=C\c2ccc(Br)o2)cc1Cl	inactive: 1.71
Cc1ccc(/C=N/N=C(/N)c2nonc2N)o1	inactive: 0.939
N=c1cc(C2(O)CCCCC2)n2c(nc3ccccc32)s1	inactive: 0.837
NNc1ncnc2ccccc12	inactive: 0.492
CCc1ccc(C2C(C#N)=C(N)SC(N)=C2C#N)s1	inactive: 1.41
O=c1oc2ccc(O)cc2s1	inactive: 1.58
N#CC1=C(O)NC([O-])=C([n+]2ccccc2)C1c1ccc(Br)cc1 (stereo not drawn)	inactive: 1.37
Cc1c(C(=O)NNC(=O)c2nn(C)cc2Br)nnn1-c1nonc1N	inactive: 1.03
Cc1nn(C(C)C(=O)NN)cc1Br (stereo not drawn)	inactive: 1.23
C#CCSc1nnc(N)s1	inactive: 1.1
C/N=C1\C(=N/O)C=CC2CCCCC12 (stereo not drawn)	inactive: 0.743
O=C1N[C@H](C(=O)O)CS1	inactive: 1.19
CC(C)COC(=O)C(C)Sc1n[nH]c(=O)[nH]c1=O (stereo not drawn)	inactive: 1.41
COCCCn1c(C23CC4CC(CC(C4)C2)C3)cn2c3c(=O)n(C)c(=O)n(C)c3nc12	inactive: 1.38
Clc1ccc2[nH]c3c(c2c1)CNCC3	inactive: 1.29
Cc1cc(NC(=O)CSc2nnc(C)s2)no1	inactive: 1.2

By substructure: the entries above with four or more nitrogen atoms
Structure (SMILES)	cell-surface Lgr5 expression
N#Cc1sc(N)c(C#N)c1N	inactive: 1.49
CC1CC(NC(=O)NCCCCCCNC(=O)NC2CC(C)CC(C)(C)C2)CC(C)(C)C1 (stereo not drawn)	inactive: 1.18
O=C(N/N=C\c1ccco1)c1cnccn1	inactive: 0.943
N#Cc1c(SCC(=O)Nc2nccs2)sc2c(O)cc(=O)[nH]c12	inactive: 1.38
c1cc(CNc2nc(-c3nonc3NC3CC3)no2)ccn1	inactive: 1.07
O=[N+]([O-])c1cc(/C=N\n2cnnc2)c2c(c1)COCO2	inactive: 1.02
c1ccc(-n2nnnc2-n2cnc3ccccc32)cc1	inactive: 1.05
FC(F)(F)c1nnc2c3ccccc3c(-n3ccnc3)nn12	inactive: 1.27
Cc1nc(-c2nonc2N)no1	inactive: 1.07
O=c1c2n[nH]c3nonc3nc-2c2ccccc12	inactive: 0.968
CC(=O)OCC1=C(C(=O)O)N2C(=O)C(NC(=O)C(C)n3cc([N+](=O)[O-])cn3)C2SC1 (stereo not drawn)	inactive: 1.23
CN(C)c1ncnc2[nH]cnc12	inactive: 1.07
c1ccc(CNc2nnns2)cc1	inactive: 1.17
NNC(=O)C(=O)Nc1nccs1	inactive: 1.07
Sc1nnc(-c2ccco2)n1/N=C/c1ccccn1	inactive: 1.01
Cc1noc(C)c1NC(=O)c1cc(C)n(C(F)F)n1	inactive: 1.07
O=c1[nH]c(=S)[nH]c2nc[nH]c12	inactive: 0.982
C1COc2cc(NC(CC3C(N=C(S3)/N=C(/N)N)=O)=O)ccc2O1 (stereo not drawn)	inactive: 1.2
CCc1[nH]nc2c1C(c1ccc(Br)s1)C(C#N)=C(N)O2 (stereo not drawn)	inactive: 1.78
CCN(CC)c1nc(N)nc(-c2noc(C)n2)n1	inactive: 1.05
O=C(NCCN1CCOCC1)c1nc[nH]n1	inactive: 1.04
Nc1ncn(CC(O)CO)c2nc(N3CCOCC3)nc1-2 (stereo not drawn)	inactive: 1.22
C/C(=N/NC(=O)CCCCC(=O)N/N=C(\C)c1ccc(C)o1)c1ccc(C)o1	inactive: 0.851
O=C(O)c1ccn(Cn2cnc([N+](=O)[O-])n2)n1	inactive: 1.11
Cc1ccc(/C=N/N=C(/N)c2nonc2N)o1	inactive: 0.939
NNc1ncnc2ccccc12	inactive: 0.492
CCc1ccc(C2C(C#N)=C(N)SC(N)=C2C#N)s1	inactive: 1.41
Cc1c(C(=O)NNC(=O)c2nn(C)cc2Br)nnn1-c1nonc1N	inactive: 1.03
Cc1nn(C(C)C(=O)NN)cc1Br (stereo not drawn)	inactive: 1.23
COCCCn1c(C23CC4CC(CC(C4)C2)C3)cn2c3c(=O)n(C)c(=O)n(C)c3nc12	inactive: 1.38
Cc1cc(NC(=O)CSc2nnc(C)s2)no1	inactive: 1.2

More records follow.

Structure (SMILES)	cell-surface Lgr5 expression
C/C=C/C1OCC2(CC=C(C)CC2C)CO1 (stereo not drawn)	inactive: 1.02
Cc1sc(/C=N/NC(N)=O)cc1Br	inactive: 1.31
Cn1nc(C(=O)O)cc1C(F)(F)F	inactive: 1.11
O=C(CSc1cccs1)Nc1nccs1	inactive: 0.885
CC1(C)CC(=O)C/C(=N/c2ccc3[nH]c(=O)[nH]c3c2)C1	inactive: 0.983
CCN1C(=O)N(CC)C(NNC(N)=S)C1NNC(N)=S (stereo not drawn)	inactive: 1.02
CS(=O)(=O)Nc1ccc2c(c1)OCO2	inactive: 1.25
O=C(O)c1cc(C(=O)O)[nH]n1	inactive: 1.13
Cc1ccc(/C=N\c2sc3c(c2C#N)CCCC3)s1	inactive: 1.32
Cc1nc2sc3c(c2c(=O)o1)CCCCC3	inactive: 1.01
O=Cc1c(Cl)nc2ccccn2c1=O	active: 2.22
O=S(=O)(NCC1(c2ccccc2)CC1)c1ccc2c(c1)OCCO2	inactive: 1.42
Cc1cc(O)c(C(C)(C)C)cc1S(=O)c1cc(C(C)(C)C)c(O)cc1C	inactive: 0.898
O=c1c2ccccc2sc2cc3ccccc3cc12	inactive: 1.06
Clc1cccc(C2Oc3ccccc3C3CC(c4ccccc4)=NN32)c1Cl (stereo not drawn)	inactive: 0.867
O=C(/C=C/N1CCOCC1)c1cccs1	inactive: 1.22
Cn1cc(CNC(=O)c2c(NC(=O)c3cc(Br)cs3)cnn2C)cn1	inactive: 1.18
CC(C)c1[nH]nc2c1C(c1ccc(Br)s1)C(C#N)=C(N)O2 (stereo not drawn)	inactive: 1.33
Nc1ncc(Br)cc1[N+](=O)[O-]	inactive: 0.796
CCCCOC(=O)CCc1n[nH]c(=O)[nH]c1=O	inactive: 1.22
CN(C)Cc1ccc(C(=O)O)o1	inactive: 1.22
